Measured values published in doi:10.1101/2022.12.14.520480.
No constants are given. Whether binding was seen depends on the method and setting. In cells and extracts the contact can be indirect. A yes stands for co-enrichment or nearness to the bait. Other partners may have been found.

T1: LAMP1-APEX2 (UniProt P11279)
T1 sequence: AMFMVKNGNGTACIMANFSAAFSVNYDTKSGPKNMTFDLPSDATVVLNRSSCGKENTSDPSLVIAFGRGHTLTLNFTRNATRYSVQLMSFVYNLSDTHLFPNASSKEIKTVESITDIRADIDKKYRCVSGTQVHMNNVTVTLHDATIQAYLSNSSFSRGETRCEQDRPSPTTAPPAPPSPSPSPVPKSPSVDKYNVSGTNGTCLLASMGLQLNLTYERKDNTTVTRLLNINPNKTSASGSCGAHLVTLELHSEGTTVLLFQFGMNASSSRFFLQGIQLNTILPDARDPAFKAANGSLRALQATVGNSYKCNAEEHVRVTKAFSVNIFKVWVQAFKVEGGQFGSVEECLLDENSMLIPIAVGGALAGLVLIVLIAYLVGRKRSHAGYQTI

T2: APEX2-TBC1D15 (UniProt Q8TC07)
T2 sequence: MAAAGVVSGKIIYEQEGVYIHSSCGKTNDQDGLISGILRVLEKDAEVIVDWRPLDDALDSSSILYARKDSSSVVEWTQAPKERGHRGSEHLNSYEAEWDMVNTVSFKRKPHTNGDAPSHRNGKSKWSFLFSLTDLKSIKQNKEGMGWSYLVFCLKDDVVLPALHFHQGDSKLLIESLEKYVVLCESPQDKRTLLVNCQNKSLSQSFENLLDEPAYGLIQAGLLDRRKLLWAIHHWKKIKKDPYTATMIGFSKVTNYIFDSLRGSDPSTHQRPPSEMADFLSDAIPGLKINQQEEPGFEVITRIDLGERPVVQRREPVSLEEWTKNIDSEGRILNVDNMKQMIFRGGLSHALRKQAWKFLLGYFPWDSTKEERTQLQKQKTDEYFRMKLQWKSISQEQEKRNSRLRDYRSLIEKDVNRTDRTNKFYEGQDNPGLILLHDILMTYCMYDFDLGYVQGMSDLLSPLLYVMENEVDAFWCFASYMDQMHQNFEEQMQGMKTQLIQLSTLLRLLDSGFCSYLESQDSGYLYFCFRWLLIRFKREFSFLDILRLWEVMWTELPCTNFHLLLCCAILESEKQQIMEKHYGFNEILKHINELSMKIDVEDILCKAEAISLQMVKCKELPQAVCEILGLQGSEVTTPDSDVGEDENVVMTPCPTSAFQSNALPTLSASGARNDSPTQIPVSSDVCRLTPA

B1: BLOC1S1 (protein, UniProt P78537 1-153)
chain: MAPGSRGERSSFRSRRGPGVPSPQPDVTMLSRLLKEHQAKQNERKELQEKRRREAITAATCLTEALVDHLNVGVAQAYMNQRKLDHEVKTLQVQAAQFAKQTGQWIGMVENFNQALKEIGDVENWARSIELDMRTIATALEYVYKGQLQSAPS
B2: TSC1 (protein, UniProt Q92574 1-1164)
chain: MAQQANVGELLAMLDSPMLGVRDDVTAVFKENLNSDRGPMLVNTLVDYYLETSSQPALHILTTLQEPHDKHLLDRINEYVGKAATRLSILSLLGHVIRLQPSWKHKLSQAPLLPSLLKCLKMDTDVVVLTTGVLVLITMLPMIPQSGKQHLLDFFDIFGRLSSWCLKKPGHVAEVYLVHLHASVYALFHRLYGMYPCNFVSFLRSHYSMKENLETFEEVVKPMMEHVRIHPELVTGSKDHELDPRRWKRLETHDVVIECAKISLDPTEASYEDGYSVSHQISARFPHRSADVTTSPYADTQNSYGCATSTPYSTSRLMLLNMPGQLPQTLSSPSTRLITEPPQATLWSPSMVCGMTTPPTSPGNVPPDLSHPYSKVFGTTAGGKGTPLGTPATSPPPAPLCHSDDYVHISLPQATVTPPRKEERMDSARPCLHRQHHLLNDRGSEEPPGSKGSVTLSDLPGFLGDLASEEDSIEKDKEEAAISRELSEITTAEAEPVVPRGGFDSPFYRDSLPGSQRKTHSAASSSQGASVNPEPLHSSLDKLGPDTPKQAFTPIDLPCGSADESPAGDRECQTSLETSIFTPSPCKIPPPTRVGFGSGQPPPYDHLFEVALPKTAHHFVIRKTEELLKKAKGNTEEDGVPSTSPMEVLDRLIQQGADAHSKELNKLPLPSKSVDWTHFGGSPPSDEIRTLRDQLLLLHNQLLYERFKRQQHALRNRRLLRKVIKAAALEEHNAAMKDQLKLQEKDIQMWKVSLQKEQARYNQLQEQRDTMVTKLHSQIRQLQHDREEFYNQSQELQTKLEDCRNMIAELRIELKKANNKVCHTELLLSQVSQKLSNSESVQQQMEFLNRQLLVLGEVNELYLEQLQNKHSDTTKEVEMMKAAYRKELEKNRSHVLQQTQRLDTSQKRILELESHLAKKDHLLLEQKKYLEDVKLQARGQLQAAESRYEAQKRITQVFELEILDLYGRLEKDGLLKKLEEEKAEAAEAAEERLDCCNDGCSDSMVGHNEEASGHNGETKTPRPSSARGSSGSRGGGGSSSSSSELSTPEKPPHQRAGPFSSRWETTMGEASASIPTTVGSLPSSKSFLGMKARELFRNKSESQCDEDGMTSSLSESLKTELGKDLGVEAKIPLNLDGPHPSPPTPDSVGQLHIMDYNETHHEHS
B3: RABL1FIP1 (protein, UniProt Q6WKZ4 1-1283)
chain: MSLMVSAGRGLGAVWSPTHVQVTVLQARGLRAKGPGGTSDAYAVIQVGKEKYATSVSERSLGAPVWREEATFELPSLLSSGPAAAATLQLTVLHRALLGLDKFLGRAEVDLRDLHRDQGRRKTQWYKLKSKPGKKDKERGEIEVDIQFMRNNMTASMFDLSMKDKSRNPFGKLKDKIKGKNKDSGSDTASAIIPSTTPSVDSDDESVVKDKKKKSKIKTLLSKSNLQKTPLSQSMSVLPTSKPEKVLLRPGDFQSQWDEDDNEDESSSASDVMSHKRTASTDLKQLNQVNFTLPKKEGLSFLGGLRSKNDVLSRSNVCINGNHVYLEQPEAKGEIKDSSPSSSPSPKGFRKKHLFSSTENLAAGSWKEPAEGGGLSSDRQLSESSTKDSLKSMTLPSYRPAPLVSGDLRENMAPANSEATKEAKESKKPESRRSSLLSLMTGKKDVAKGSEGENPLTVPGREKEGMLMGVKPGEDASGPAEDLVRRSEKDTAAVVSRQGSSLNLFEDVQITEPEAEPESKSEPRPPISSPRAPQTRAVKPRLEVSPEAQPTARLPSPTDSPSSLPPLPSSSGQASVPSELGHGADTQSSESPSVFSSLSSPIAAPISTSTPIESWPLVDRGQAKSEGPPLLPKAELQTESLTPVPNSGSSALGSLFKQPSFPANKGTEDSLMGRTRETGTEKNTSSLELEESLPEQPETGRQEEELPRFPCKKQDYSPSSGEAQEVPFALSLSSDGAVSPVGELAAGGDRDLESQAGSLVESKARDAAEEVAPPLPMGASVPSIDSMMRKLEEMGLNLRKDQKKTKKRVSFSEQLFTEEAVAGAALLVEGHSSCPQELNPAWSVAGNASDGEPPESPHAEDSERESVTTPGPATCGAPASPADHLLLPSQEESFSEVPMSEASSAKDTPLFRMEGEDALVTQYQSKASDHEGLLSDPLSDLQLVSDFKSPIMADLNLSLPSIPEVASDDERIDQVEDDGDQVEDDGETAKSSTLDIGALSLGLVVPCPERGKGPSGEADRLVLGEGLCDFRLQAPQASVTAPSEQTTEFGIHKPHLGKSSSLDKQLPGPSGGEEEKPMGNGSPSPPPGTSLDNPVPSPSPSEIFPVTHSFPSSAHSDTHHTSTAESQKKATAEGSAGRVENFGKRKPLLQAWVSPSETHPVSAQPGAGTGSAKHRLHPVKPMNAMATKVANCSLGTATIISENLNNEVMMKKYSPSDPAFAYAQLTHDELIQLVLKQKETISKKEFQVRELEDYIDNLLVRVMEETPNILRIPTQVGKKAGKM
B4: ESYT2 (protein, UniProt A0FGR8 1-921)
chain: MTANRDAALSSHRHPGCAQRPRTPTFASSSQRRSAFGFDDGNFPGLGERSHAPGSRLGARRRAKTARGLRGHRQRGAGAGLSRPGSARAPSPPRPGGPENPGGVLSVELPGLLAQLARSFALLLPVYALGYLGLSFSWVLLALALLAWCRRSRGLKALRLCRALALLEDEERVVRLGVRACDLPAWVHFPDTERAEWLNKTVKHMWPFICQFIEKLFRETIEPAVRGANTHLSTFSFTKVDVGQQPLRINGVKVYTENVDKRQIILDLQISFVGNCEIDLEIKRYFCRAGVKSIQIHGTMRVILEPLIGDMPLVGALSIFFLRKPLLEINWTGLTNLLDVPGLNGLSDTIILDIISNYLVLPNRITVPLVSEVQIAQLRFPVPKGVLRIHFIEAQDLQGKDTYLKGLVKGKSDPYGIIRVGNQIFQSRVIKENLSPKWNEVYEALVYEHPGQELEIELFDEDPDKDDFLGSLMIDLIEVEKERLLDEWFTLDEVPKGKLHLRLEWLTLMPNASNLDKVLTDIKADKDQANDGLSSALLILYLDSARNLPSGKKISSNPNPVVQMSVGHKAQESKIRYKTNEPVWEENFTFFIHNPKRQDLEVEVRDEQHQCSLGNLKVPLSQLLTSEDMTVSQRFQLSNSGPNSTIKMKIALRVLHLEKRERPPDHQHSAQVKRPSVSKEGRKTSIKSHMSGSPGPGGSNTAPSTPVIGGSDKPGMEEKAQPPEAGPQGLHDLGRSSSSLLASPGHISVKEPTPSIASDISLPIATQELRQRLRQLENGTTLGQSPLGQIQLTIRHSSQRNKLIVVVHACRNLIAFSEDGSDPYVRMYLLPDKRRSGRRKTHVSKKTLNPVFDQSFDFSVSLPEVQRRTLDVAVKNSGGFLSKDKGLLGKVLVALASEELAKGWTQWYDLTEDGTRPQAMT
B5: HIP1 (protein, UniProt O00291 1-1037)
chain: MDRMASSMKQVPNPLPKVLSRRGVGAGLEAAERESFERTQTVSINKAINTQEVAVKEKHARTCILGTHHEKGAQTFWSVVNRLPLSSNAVLCWKFCHVFHKLLRDGHPNVLKDSLRYRNELSDMSRMWGHLSEGYGQLCSIYLKLLRTKMEYHTKNPRFPGNLQMSDRQLDEAGESDVNNFFQLTVEMFDYLECELNLFQTVFNSLDMSRSVSVTAAGQCRLAPLIQVILDCSHLYDYTVKLLFKLHSCLPADTLQGHRDRFMEQFTKLKDLFYRSSNLQYFKRLIQIPQLPENPPNFLRASALSEHISPVVVIPAEASSPDSEPVLEKDDLMDMDASQQNLFDNKFDDIFGSSFSSDPFNFNSQNGVNKDEKDHLIERLYREISGLKAQLENMKTESQRVVLQLKGHVSELEADLAEQQHLRQQAADDCEFLRAELDELRRQREDTEKAQRSLSEIERKAQANEQRYSKLKEKYSELVQNHADLLRKNAEVTKQVSMARQAQVDLEREKKELEDSLERISDQGQRKTQEQLEVLESLKQELATSQRELQVLQGSLETSAQSEANWAAEFAELEKERDSLVSGAAHREEELSALRKELQDTQLKLASTEESMCQLAKDQRKMLLVGSRKAAEQVIQDALNQLEEPPLISCAGSADHLLSTVTSISSCIEQLEKSWSQYLACPEDISGLLHSITLLAHLTSDAIAHGATTCLRAPPEPADSLTEACKQYGRETLAYLASLEEEGSLENADSTAMRNCLSKIKAIGEELLPRGLDIKQEELGDLVDKEMAATSAAIETATARIEEMLSKSRAGDTGVKLEVNERILGCCTSLMQAIQVLIVASKDLQREIVESGRGTASPKEFYAKNSRWTEGLISASKAVGWGATVMVDAADLVVQGRGKFEELMVCSHEIAASTAQLVAASKVKADKDSPNLAQLQQASRGVNQATAGVVASTISGKSQIEETDNMDFSSMTLTQIKRQEMDSQVRVLELENELQKERQKLGELRKKHYELAGVAEGWEEGTEASPPTLQEVVTEKE

How the values were obtained:
[1] = biological target: T1, LAMP1-APEX2; test: proximity labelling
[2] = biological target: T2, APEX2-TBC1D15; test: proximity labelling

| Binder | binding [1] | binding [2] |
| --- | --- | --- |
| B1 | binds |  |
| B2 | binds |  |
| B3 |  | binds |
| B4 |  | binds |
| B5 |  | binds |
